The values that follow come from publication PMC12040169 (PLOS Biology, 2025).

This is one part of the list.

The assay relates to T1, CTL2-GFP (C. trachomatis L2/434/Bu, GFP-expressing).
T1 construct: L2/434/Bu, GFP-expressing
Further details: species or system HeLa; Intracellular C. trachomatis growth in HeLa cells, bulk GFP fluorescence relative to DMSO. The note with it: bulk GFP, single well; 28.5 h, 10 µM; inhibitor.
On to `COC(=O)c1cc(-c2c[nH]c3ccccc23)n[nH]1` [CBK241010], for which the “% of control remaining” value is 110.981%.

Take `COc1ccc(CC(=O)N2CCC(c3cc4cnccc4[nH]3)CC2)cc1` [CBK283451]: the “% of control remaining” value stood at 125.43%.

Turning to `O=c1ccc2c(-c3cccc(C(F)(F)F)c3)ccnc2[nH]1` [CBK073733], the “% of control remaining” value turned out to be 117.859%.

As to `CN(C)CC1CCCN(C(=O)[C@@H]2C[C@@H]3C=C[C@H]2C3)C1` (stereo partly drawn) [CBK282063], the “% of control remaining” value is 165.827%.

Consider `CC(C)N(C(=O)Cn1c(-c2ccco2)cc2cccnc21)C(C)C` [CBK282682], for which the “% of control remaining” value amounted to 86.8165%.

`O=C(CN1CCC(Cc2ccccc2)CC1)Nc1ccc(S(=O)(=O)N2CCOCC2)cc1` [CBK268451]: the “% of control remaining” value came out at 105.098%.

Turning to `Cc1cc(=O)n2ncn(CC(=O)NCCOc3ccccc3)c2c1` [CBK305823], the “% of control remaining” value worked out at 98.0726%.

As for `Cc1nn2c(O)c3c(nc2c1-c1cccs1)CCC3` [CBK283729], the “% of control remaining” value was determined as 115.97%.

With `O=C(O)CCCN1C(=O)/C(=C/c2c[nH]c3ccccc23)SC1=S` [CBK262580], the “% of control remaining” value was determined as 104.747%.

Consider `CNC(=O)C1(Cc2cccc(-c3cccs3)c2)CCN(C(=O)Cc2ccccc2)CC1` [CBK285745], for which the “% of control remaining” value is given as 123.063%.

In the case of `O=C(Nc1cccc(CCc2nc3ccccc3[nH]2)c1)c1ccc(Cn2cncn2)cc1` [CBK285648], the “% of control remaining” value was 93.5801%.

For the compound `CC(C)[C@H](CO)Nc1nccnc1-c1cccc(O)c1` [CBK037542], the “% of control remaining” value came out at 110.321%.

As to `CC(C)[C@H](NS(=O)(=O)c1ccc(Cl)cc1)C(=O)NCc1ccc(Cn2cccn2)cc1` [CBK295611], the “% of control remaining” value is 128.203%.

In the case of `O=C(NC(=S)Nc1cccc(-c2nc3ccccc3s2)c1)c1cc([N+](=O)[O-])ccc1N1CCOCC1` [CBK268789], the “% of control remaining” value came to 118.861%.

`COc1ccc(-c2cnc(NCC3CC3)c(C(=O)NCc3ccco3)c2)cc1` [CBK076283]: the “% of control remaining” value was determined as 71.5657%.

Take `CC1Cc2cc(C(O)(CCN(C)C)c3ccccc3)ccc2O1` (stereo not drawn) [CBK011764]: the “% of control remaining” value was 113.061%.

For the compound `O=C(NCC1(O)CCSCC1)c1ccc2ccccc2n1` [CBK305211], the “% of control remaining” value is on record as 137.218%.

With `Cc1cccc(Nc2ncc(Cc3ccccc3C)s2)n1` [CBK287849], the “% of control remaining” value is given as 126.739%.

On to `CNC(=O)[C@@H]1CN(Cc2ccccc2)C[C@H]1C(=O)c1ccc(F)cc1` [CBK282902], for which the “% of control remaining” value is given as 131.997%.

As to `Cc1ccc(-c2c(C(=O)NNC(=S)NCc3ccco3)csc2C)cc1` [CBK266992], the “% of control remaining” value turned out to be 112.56%.

As for `NC(=O)c1c(NC(=O)NCc2cccnc2)sc2c1CCC2` [CBK307578], the “% of control remaining” value came to 168.115%.

Consider `CC(C)=NNC(=O)Nc1nonc1N` [CBK027368], for which the “% of control remaining” value is 96.7257%.

As for `O=C(NC[C@H]1O[C@@H](CC(=O)N2CCCC2)[C@H](O)[C@@H]1O)c1ccccc1` [CBK288907], the “% of control remaining” value stood at 102.608%.

As to `OCCOc1ccccc1OCCO` [CBK260930], the “% of control remaining” value is reported as 106.981%.

For `CC(C)(C)OC(=O)N1CCN(c2ccccc2O)CC1` [CBK003878], the “% of control remaining” value was 119.168%.

On to `c1ccc(CCCN2CCN(Cc3ccccc3)CC2)cc1` [CBK261878], for which the “% of control remaining” value came to 100%.

Regarding `Cc1cc(C)c(NC(=O)CSc2ncccc2-c2nc(C)no2)c(C)c1` [CBK287821], the “% of control remaining” value worked out at 115.908%.

Consider `CCCSc1nnc(NC(=O)c2nc(SC)ncc2Cl)s1` [CBK268759], for which the “% of control remaining” value was 115.469%.

For the compound `O=C(c1ccco1)N1CCN(c2cc(-c3cccc4cccnc34)ncn2)CC1` [CBK091117], the “% of control remaining” value is 182.204%.

On to `CCOC(=O)CNC(=O)c1cc(Br)c(OC)c(OC)c1` [CBK058454], for which the “% of control remaining” value is 98.3031%.

Consider `Cc1ccc([N+](=O)[O-])cc1NC1OCC(O)C(O)C1O` (stereo not drawn) [CBK262026], for which the “% of control remaining” value is reported as 100%.

On to `CCC1c2ccc(C)n2CCN1C(=O)c1cc(-c2ccccn2)n[nH]1` (stereo not drawn) [CBK283225], for which the “% of control remaining” value is 123.761%.

Take `CCCC/C=C/c1cncc(NCCc2c[nH]c3ccccc23)n1` [CBK066081]: the “% of control remaining” value stood at 143.522%.

Regarding `CN1CCN(C(=O)CN(c2ccccc2)S(=O)(=O)N(C)C)CC1` [CBK268079], the “% of control remaining” value stood at 118.643%.

In the case of `CCC(CC)C(=O)N1C[C@H]2CCc3cn(CCNC(C)=O)nc3[C@H]2C1` [CBK282183], the “% of control remaining” value stood at 119.133%.

With `COc1cc(CN2CCOC3(CCN(C(=O)OCc4ccccc4)CC3)C2)cc(OC)c1OC` [CBK161104T], the “% of control remaining” value came out at 121.538%.

In the case of `CCc1ccc(-c2ccc(C(=O)OC)cn2)cc1` [CBK149232], the “% of control remaining” value was determined as 193.478%.

Turning to `Cc1ccc2c(Cl)c(-c3nnc(-c4ccc(Cl)cc4)o3)sc2c1` [CBK263682], the “% of control remaining” value is recorded as 100%.

Turning to `Nc1ncnc2c1nc1n2[C@H]2C[C@@H](O)[C@@H](C1)O2` [CBK201254], the “% of control remaining” value stood at 94.3031%.

`O=C(O)CCCOc1nc(C2CC2)cc(C(F)(F)F)n1` [CBK286886]: the “% of control remaining” value was 124.071%.

For the compound `COCCNc1cc(-c2ccccc2N(C)C)ncn1` [CBK090790], the “% of control remaining” value is 159.919%.

On to `CC(O)CNCc1ccccc1OCc1ccccc1F` (stereo not drawn) [CBK270278C], for which the “% of control remaining” value is 121.186%.

As for `COc1ccc(C2CC(=O)c3c(C)n[nH]c3C2)cc1` (stereo not drawn) [CBK287911], the “% of control remaining” value came out at 78.5091%.

On to `O=C(NCC1(O)CCSCC1)c1cc2ccccc2[nH]1` [CBK305199], for which the “% of control remaining” value was 122.534%.

As for `Cc1cc(CNC(=O)/C=C/c2ccc(C(C)C)cc2)no1` [CBK149614], the “% of control remaining” value worked out at 79.4799%.

Consider `CC(C)(C)c1cc(C(=O)NCC(=O)NCC(=O)O)cc(C(C)(C)C)c1` [CBK262200], for which the “% of control remaining” value is listed as 109.475%.

In the case of `CC(=O)NC(c1ccccn1)C1CCCN(C(=O)C(C)C)C1` (stereo not drawn) [CBK285030], the “% of control remaining” value is reported as 110.196%.

For the compound `OC/C=C/c1cnc2ccccc2c1` [CBK001749], the “% of control remaining” value worked out at 110.001%.

`CCC(CC)NS(=O)(=O)c1cccc(C(=O)O)c1` [CBK287225]: the “% of control remaining” value is listed as 125.9%.

As for `O=C(CN1C(=O)/C(=C/c2ccccc2)SC1=S)Nc1cccc(C(=O)O)c1` [CBK262171], the “% of control remaining” value came to 111.892%.

`COC(=O)c1cc(C#N)c(=O)n(CC(=O)N(C)Cc2ccsc2)c1` [CBK297788]: the “% of control remaining” value worked out at 123.015%.

In the case of `NC(=O)C1(Cc2ccccc2-c2ccccc2)CCN(C(=O)Cc2ccccc2)CC1` [CBK285909], the “% of control remaining” value is 113.264%.

In the case of `CC1(C)CC(NC(=O)CN2CCCCC2)CC(C)(C)N1` [CBK261956], the “% of control remaining” value came out at 137.177%.

Take `COc1ccc([C@@]23CC[C@@H](NC(=O)Nc4ccc(Cl)cc4Cl)C[C@@H]2CN(C)C3)cc1OC` [CBK085798T]: the “% of control remaining” value came out at 83.5991%.

On to `CCCN1CCC(N(C)CCN(CC)CC)CC1` [CBK261935], for which the “% of control remaining” value is 108.258%.

As for `COc1ccc(OCCNC(=O)c2cc(-c3cccnc3)cnc2N2CCOCC2)cc1` [CBK076341], the “% of control remaining” value is 100%.

For the compound `O=C(NCc1cccc(C(F)(F)F)c1)N1CCCCC1CO` (stereo not drawn) [CBK156165], the “% of control remaining” value came to 114.843%.

In the case of `Cc1cc(C)nc(NC(=O)c2c(Cl)cccc2Cl)n1` [CBK058401], the “% of control remaining” value worked out at 150.034%.

In the case of `OCC(O)/C=N/Nc1nc(N2CCCCC2)nc(N2CCCCC2)n1` (stereo not drawn) [CBK019423], the “% of control remaining” value was determined as 130.999%.

On to `O=C(CSc1nnc(-c2cccnc2)n1-c1ccc(Br)cc1)Nc1ccc2c(c1)OCCO2` [CBK266133], for which the “% of control remaining” value is reported as 125.691%.

In the case of `C=CCc1cc(C)cc(C)c1OCCN1CCN(C)CC1` [CBK269672C], the “% of control remaining” value came to 135.85%.

Turning to `Nc1nnc(SCc2nc(=O)c3ccccc3[nH]2)s1` [CBK270059], the “% of control remaining” value was 117.484%.

For the compound `O=C(c1cccnc1)N1CCc2ccccc21` [CBK200279], the “% of control remaining” value is on record as 88.3791%.

As to `COc1ccc2ccccc2c1CNCCCN1CCOCC1` [CBK278209C], the “% of control remaining” value was found to be 131.861%.

Take `Cc1csc2c(C3CCN(C(=O)c4ccn(C)n4)CC3)nc(C)n12` [CBK285248]: the “% of control remaining” value amounted to 102.908%.

In the case of `CCOC(=O)c1c(NC(=S)N2CCN(S(C)(=O)=O)CC2)sc(C)c1-c1ccccc1` [CBK267072], the “% of control remaining” value is 128.975%.

As to `O=S(=O)(Nc1nccnc1-c1ccc2c(c1)OCO2)c1cccc(Cl)c1` [CBK050951], the “% of control remaining” value came to 94.3515%.

On to `C[C@]12CN(Cc3cccc(C#Cc4ccccc4)c3)C[C@H]1C(=O)Nc1ccccc1C(=O)N2` [CBK286403], for which the “% of control remaining” value is 139.349%.

Consider `CCc1nc2ccc(C(=O)N3CCN(C)CC3)cn2c1N(C)Cc1nccn1C` [CBK146299], for which the “% of control remaining” value was found to be 84.8882%.

For `Cc1nc(-c2cccnc2)[nH]c(=O)c1CCC(=O)N1CC2CCC1C2` (stereo not drawn) [CBK304198], the “% of control remaining” value is 134.779%.

In the case of `CCCCn1c(CSc2ncccc2C(=O)O)nc2cc(S(=O)(=O)N3CCOCC3)ccc21` [CBK297558], the “% of control remaining” value is reported as 114.664%.

Consider `CN1CCC(N2CCN(C(=O)NCCCN3CCCC3=O)CC2)CC1` [CBK156105], for which the “% of control remaining” value is 121.087%.

Take `CC(C)(C(=O)N1CCC(CC(=O)NCCc2ccccc2F)CC1)c1ccc(F)cc1` [CBK286497]: the “% of control remaining” value is 113.657%.

For the compound `CC(C)CN1CCN(S(=O)(=O)c2ccc(C(F)(F)F)cc2Cl)CC1` [CBK062740], the “% of control remaining” value is on record as 111.241%.

As to `Cc1ccccc1OC(C)C(=O)Nn1cnnc1` (stereo not drawn) [CBK268619], the “% of control remaining” value was found to be 141.588%.

With `CCN(CC)C(=O)Cn1nc2c(C)cc3ccccc3n2c1=O` [CBK283879], the “% of control remaining” value came to 146.554%.

As for `CCOc1cc(NC2CCN(C(=O)C3(CC(C)C)CCC3)CC2)ncn1` [CBK304136], the “% of control remaining” value came out at 81.1497%.

`COc1cccc(NC(=O)c2ccnc(Cl)c2)c1` [CBK174661]: the “% of control remaining” value turned out to be 94.0129%.

As to `Cc1cc(C)cc(NC(=O)NCCc2cccs2)c1` [CBK044998], the “% of control remaining” value was 119.121%.

Turning to `O=C(O)CCC(=O)N1C[C@@H]2C[C@H](C1)c1c(-c3ccc(Cl)cc3)ccc(=O)n1C2` [CBK289190], the “% of control remaining” value was found to be 132.469%.

`Cc1ccc(S(=O)(=O)CC(=O)Nc2nc3ccc(C)cc3s2)cc1` [CBK287705]: the “% of control remaining” value is on record as 128.076%.
